Experimental data as given in PubChem BioAssay AID332 (DTP/NCI, 2004).
The list does not hold the whole screen: it gathers some chemical classes. Other doses and runs of a compound may be missing. T/C: endpoint of the treated group in % of that of the vehicle group. Some T/C values are marked as having no survivor count here; that says nothing about deaths at the dose. Schedule codes are those of the source, read here as Q, the interval in days (D) or hours (H), X, the number of doses. Some entries hold several experiments; the values are given in rising order.

Test system: mice, ADJ-PC-20 plasma cell tumor sc, T/C %
Experiment: NCI In Vivo Anticancer Drug Screen. Data for tumor model ADJ-PC-20 Plasma Cell (subcutaneous) in unknown mice
Details: T/C endpoint: mean tumor weight, evaluation day not shown, higher T/C = larger tumour
Method: The antitumor activity of compounds was measured in mice bearing transplantable tumors. Survival or tumor size were measured and the results are expressed as the measurement made in the treated group (T) divided by the measurement made in the vehicle treated control group (C). The tumor model used in this assay is ADJ-PC-20 Plasma Cell (subcutaneous) in unknown mice

[1] = dose: 2.5 mg/kg/injection, schedule: Q01DX010 (ip), vehicle: carboxymethylcellulose (CMC)
[2] = dose: 5.0 mg/kg/injection, schedule: Q01DX010 (ip), vehicle: carboxymethylcellulose (CMC)
[3] = dose: 10.0 mg/kg/injection, schedule: Q01DX010 (ip), vehicle: carboxymethylcellulose (CMC)

SMILES: NC(Cc1ccccc1N(CCCl)CCCl)C(=O)O (stereo unspecified)
- T/C (dose: 0.12 mg/kg/injection, schedule: Q01DX011 (ip), vehicle: carboxymethylcellulose (CMC)): 119 % of control [survivor count not shown]
- T/C (dose: 0.25 mg/kg/injection, schedule: Q01DX011 (ip), vehicle: carboxymethylcellulose (CMC)): 104 % of control [survivor count not shown]
- T/C (dose: 0.5 mg/kg/injection, schedule: Q01DX010 (ip), vehicle: carboxymethylcellulose (CMC)): 48 % of control [survivor count not shown]
- T/C (dose: 0.5 mg/kg/injection, schedule: Q01DX011 (ip), vehicle: carboxymethylcellulose (CMC)): 64 % of control [survivor count not shown]
- T/C (dose: 1.0 mg/kg/injection, schedule: Q01DX010 (ip), vehicle: carboxymethylcellulose (CMC)): 5 % of control [survivor count not shown]
- T/C (dose: 1.0 mg/kg/injection, schedule: Q01DX011 (ip), vehicle: carboxymethylcellulose (CMC)): 57 % of control [survivor count not shown]
- T/C (dose: 2.0 mg/kg/injection, schedule: Q01DX011 (ip), vehicle: carboxymethylcellulose (CMC)): 9 % of control [survivor count not shown]

SMILES: O=C(O)CN(CCCl)CCCl
- T/C (dose: 0.5 mg/kg/injection, schedule: Q01DX010 (ip), vehicle: saline): 106 % of control [survivor count not shown]
- T/C (dose: 1.0 mg/kg/injection, schedule: Q01DX010 (ip), vehicle: saline): 121 % of control [survivor count not shown]
- T/C (dose: 2.0 mg/kg/injection, schedule: Q01DX010 (ip), vehicle: saline): 119 % of control [survivor count not shown]
- T/C (dose: 4.0 mg/kg/injection, schedule: Q01DX010 (ip), vehicle: saline): 83 % of control [survivor count not shown]

SMILES: NC(Cc1cccc(N(CCCl)CCCl)c1)C(=O)O (stereo unspecified)
- T/C (dose: 0.04 mg/kg/injection, schedule: Q01DX010 (ip), vehicle: carboxymethylcellulose (CMC)): 93 % of control [survivor count not shown]
- T/C (dose: 0.08 mg/kg/injection, schedule: Q01DX010 (ip), vehicle: carboxymethylcellulose (CMC)): 106 % of control [survivor count not shown]
- T/C (dose: 0.16 mg/kg/injection, schedule: Q01DX010 (ip), vehicle: carboxymethylcellulose (CMC)): 108 % of control [survivor count not shown]
- T/C (dose: 0.31 mg/kg/injection, schedule: Q01DX010 (ip), vehicle: carboxymethylcellulose (CMC)): 74 % of control [survivor count not shown]
- T/C (dose: 0.63 mg/kg/injection, schedule: Q01DX010 (ip), vehicle: carboxymethylcellulose (CMC)): 6 % of control [survivor count not shown]

SMILES: ClCCNCCCl
- T/C (dose: 3.1 mg/kg/injection, schedule: Q01DX010 (ip), vehicle: carboxymethylcellulose (CMC)): 111 % of control [survivor count not shown]
- T/C (dose: 6.25 mg/kg/injection, schedule: Q01DX010 (ip), vehicle: carboxymethylcellulose (CMC)): 156 % of control [survivor count not shown]
- T/C (dose: 12.5 mg/kg/injection, schedule: Q01DX010 (ip), vehicle: carboxymethylcellulose (CMC)): 76 % of control [survivor count not shown]
- T/C (dose: 25.0 mg/kg/injection, schedule: Q01DX010 (ip), vehicle: carboxymethylcellulose (CMC)): 60 % of control [survivor count not shown]

SMILES: ClCCN(CCCl)Cc1nc2ccccc2[nH]1
- T/C (dose: 1.25 mg/kg/injection, schedule: Q01DX010 (ip), vehicle: carboxymethylcellulose (CMC)): 54 % of control [survivor count not shown]
- T/C [1]: 109 % of control [survivor count not shown]
- T/C [2]: 61 [survivor count not shown] and 73 % of control [survivor count not shown]
- T/C [3]: 11 [survivor count not shown] and 35 % of control [survivor count not shown]

SMILES: ClCCN(CCCl)c1ccccc1
- T/C (dose: 2.4 mg/kg/injection, schedule: Q01DX010 (ip), vehicle: carboxymethylcellulose (CMC)): 60 % of control [survivor count not shown]
- T/C (dose: 3.12 mg/kg/injection, schedule: Q01DX010 (ip), vehicle: methylcellulose (MC)): 15 % of control [survivor count not shown]
- T/C (dose: 4.7 mg/kg/injection, schedule: Q01DX010 (ip), vehicle: carboxymethylcellulose (CMC)): 23 % of control [survivor count not shown]
- T/C (dose: 6.25 mg/kg/injection, schedule: Q01DX010 (ip), vehicle: methylcellulose (MC)): 6 % of control [survivor count not shown]

SMILES: CC(C(=O)O)N(CCCl)CCCl (stereo unspecified)
- T/C [1]: 87 % of control [survivor count not shown]
- T/C [2]: 107 % of control [survivor count not shown]
- T/C [3]: 81 % of control [survivor count not shown]
